{
  "source": "PubChem BioAssay AID1347155",
  "about": "(National Center for Advancing Translational Sciences (NCATS), 2019)",
  "note": "Inconclusive results, whose numbers are uncertain, are shown with a selection of clear calls. Potencies beside an inconclusive call are fits to weak or partial responses and may not hold up. The source made the active and inactive calls. Calls come from the whole dose curve; as a rule, active = well fitted inhibition curve with a large enough effect; inconclusive = small, poorly fitted or top-dose-only effect; inactive = no such curve, though single readings can be large or run the other way.",
  "data": [
    {"system": "Zika virus NS2B-NS3 protease (linked)", "assay": "Optimization screen NINDS Rhodamine qHTS for Zika virus inhibitors: Linked NS2B-NS3 protease assay", "conditions": "fluorogenic rhodamine substrate; series mostly up to 105 µM; activity change, negative = inhibition: at the top concentration", "description": "Avindra Nath, Ph.D., National Institute of Neurological Disorders and Stroke (NINDS), Bethesda, MD\nRadhakrishnan Padmanabhan, Ph.D., Georgetown University (GU), Washington D.C.\nZika Virus causes congenital defects, including microcephaly and is associated with Guillain-Barre syndrome, eningoencephalitis and myelitis in infected adult. […] Using a target-based approach, we hope to establish a screening paradigm to uncover novel, cell-active NS2B-NS3 protease (Zika Virus) specific inhibitors from NCATS' collection of small molecules using qHTS.\nFour assay panel was created to identify potential Zika Virus inhibitors. Namely, (1) GU unlinked NS2B-NS3 AMC tagged protease qHTS, (2) GU unlinked NS2B-NS3 Rhodamine tagged protease qHTS, (3) NINDS linked NS2B-NS3 AMC tagged protease qHTS, (4) NINDS linked NS2B-NS3 Rhodamine tagged protease qHTS. Active compounds were re-acquired and re-screened to confirm inhibition. Inhibitors were further screened against various confirmatory and counterscreens in dose response format.\nEarly Translation Branch (ETB)\nNational Center for Advancing Translational Sciences (NCATS), Rockville, MD\nNational Institute of Health (NIH), Bethesda, Maryland\nFor the linked assay, Nath lab (NINDS) provided the purified linked NS2B-NS3 protease which is consists of hydrophilic domain of NS2B linked to the NS3 protease domain by a flexible (-GGGGSGGGG-) linker. Control compound aprotinin is obtained from Thermo Scientific (#78432; Waltham, Massachusetts). Rhodamine110 substrate ([N-Cbz]-Nle-Lys-Arg-Arg-Rhod110-Arg-Arg-Lys-Nle-[N-Cbz]) was purchased from either Genscript or Bachem.\n1536-well Protease (Rhodamine110 Substrate) Assay:\nBriefly, 3 microL of enzyme (25 nM final concentration), in assay buffer (10 mM Tris-HCl pH 8.0 with 0.01% Tween 20) were dispensed into a 1,536-well solid-bottom black plate (Greiner Bio One, Monroe, NC). Twenty-three nL of compounds (final concentration range 7.28 nM to 114 microM) or control Aprotinin (final concentration range 3.47 nM to 114 microM) were transferred via Wako Pin-tool (Wako Automation, Richmond, VA). Samples were incubated (room temperature, protected from light) for 15 minutes followed by a 1 microL Rhodamine110 substrate addition (1.5 microM final concentration). Plates were then immediately read on a ViewLux High-throughput CCD imager (PerkinElmer, Waltham, MA) equipped with FITC fluorescence optics (480(20) nm excitation, 540(25) nm emission), then incubated (room temperature, protected from light) for 15 minutes (~15% conversion). The change in fluorescence intensity over the 15-minute reaction period was normalized against no-inhibitor and no-enzyme controls and the resulting percent inhibition data were fitted to a 4-parameter Hill equation. Aprotinin was used as intraplate control.", "values": [
      {"smiles": "COC(=O)Nc1nc2ccc(C(=O)c3ccccc3)cc2[nH]1", "Potency": "inconclusive: 44.1 µM [inhibitor, partial curve]"},
      {"smiles": "Nc1ncnc2c1ncn2[C@@H]1O[C@H](CSCC[C@H](N)C(=O)O)[C@@H](O)[C@H]1O", "Potency": "inconclusive: 0.156 µM [inhibitor, full curve, poor fit]"},
      {"smiles": "CCCCC(CC)CN=C(N)NC(N)=NCCCCCCN=C(N)NC(N)=NCC(CC)CCCC", "note": "(configuration not stated)", "Potency": "inconclusive: 62.2 µM [inhibitor, single point]"},
      {"smiles": "Cc1nc(Nc2ncc(C(=O)Nc3c(C)cccc3Cl)s2)cc(N2CCN(CCO)CC2)n1", "Potency": "inconclusive: 447 µM [inhibitor, partial curve, poor fit]"},
      {"smiles": "Oc1cc2ccccc2c2ccccc12", "Potency": "active: 63.9 µM"},
      {"smiles": "C[C@H]1O[C@@H](O[C@H]2[C@@H](O)C[C@H](O[C@H]3[C@@H](O)C[C@H](O[C@H]4CC[C@]5(C)C6C[C@@H](O)[C@]7(C)[C@@H](C8=CC(=O)OC8)CC[C@]7(O)C6CC[C@@H]5C4)O[C@@H]3C)O[C@@H]2C)C[C@H](O)[C@@H]1O", "note": "(some centres not stated)", "activity change, negative = inhibition": "inactive: 1.78%"},
      {"smiles": "COc1c(C)c2c(c(O)c1C/C=C(\\C)CCC(=O)O)C(=O)OC2", "Potency": "inconclusive: 27.8 µM [inhibitor, partial curve]"},
      {"smiles": "COc1c2occc2cc2ccc(=O)oc12", "Potency": "inconclusive: 0.359 µM [inhibitor, full curve]"},
      {"smiles": "CCCCCCCCc1ccc(CCC(N)(CO)CO)cc1", "Potency": "active: 55.5 µM"},
      {"smiles": "C[C@H](NC(=O)C(=O)Nc1ccccc1C(C)(C)C)C(=O)N[C@@H](CC(=O)O)C(=O)COc1c(F)c(F)cc(F)c1F", "Potency": "inconclusive: 39.3 µM [inhibitor, partial curve]"},
      {"smiles": "CC(C)N=c1cc2n(-c3ccc(Cl)cc3)c3ccccc3nc-2cc1Nc1ccc(Cl)cc1", "Potency": "inconclusive: 13.9 µM [inhibitor, partial curve, poor fit]"},
      {"smiles": "CN1CCN(C(=O)CCN2C(=O)/C(=C\\c3ccccc3F)SC2=S)CC1", "Potency": "inconclusive: 114 µM [inhibitor, partial curve]"}
    ]}
  ]
}
